The results in this text go back to publication PMC7732837.

Protein sequences, listed by entry. Tags and fused reporters are not part of them. Lines headed by an entry give the natural chain unless they say otherwise; changes in a name come on top.
UniProt Q16665: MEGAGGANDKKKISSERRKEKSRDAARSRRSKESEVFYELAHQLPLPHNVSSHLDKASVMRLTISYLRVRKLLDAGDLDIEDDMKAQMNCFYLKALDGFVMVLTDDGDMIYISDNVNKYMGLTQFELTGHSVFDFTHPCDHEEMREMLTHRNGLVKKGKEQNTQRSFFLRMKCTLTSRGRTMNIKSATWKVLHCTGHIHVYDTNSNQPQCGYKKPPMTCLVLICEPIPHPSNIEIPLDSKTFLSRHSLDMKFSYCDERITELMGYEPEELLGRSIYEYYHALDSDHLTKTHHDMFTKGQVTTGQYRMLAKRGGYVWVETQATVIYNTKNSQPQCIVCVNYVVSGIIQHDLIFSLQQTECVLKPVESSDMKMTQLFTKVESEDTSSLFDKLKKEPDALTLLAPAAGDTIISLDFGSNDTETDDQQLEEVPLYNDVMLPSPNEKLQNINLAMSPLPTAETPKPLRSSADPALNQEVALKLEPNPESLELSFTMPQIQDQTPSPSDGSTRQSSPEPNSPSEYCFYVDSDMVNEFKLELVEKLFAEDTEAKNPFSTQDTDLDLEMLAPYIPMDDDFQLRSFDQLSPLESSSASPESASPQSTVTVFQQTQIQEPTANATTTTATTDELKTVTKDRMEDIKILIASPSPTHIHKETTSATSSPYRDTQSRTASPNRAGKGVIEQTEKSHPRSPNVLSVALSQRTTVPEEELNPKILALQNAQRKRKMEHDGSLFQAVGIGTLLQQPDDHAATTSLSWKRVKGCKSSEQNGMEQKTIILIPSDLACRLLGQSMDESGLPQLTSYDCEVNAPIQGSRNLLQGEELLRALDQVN

Data set [1] addresses HIF-1alpha (endogenous HIF-1, CoCl2-treated IMR-90 nuclear extract) (UniProt Q16665). In words: EMSA. The conditions noted are these: 20 mM Hepes pH 7.9, 2 mM MgCl2, 0.1 mM EDTA, 10% glycerol, 2 mM spermidine, 0.5 mM DTT, 30-50 ng salmon-sperm DNA, 2 ug BSA, 20 uL, 30 min on ice, protein in an extract, label: 32P (dATP). In general terms: Mobility shift assays separate free from complexed probe on a gel.

Data set [2] has the same target. Put plainly: EMSA with antibody supershift/competition. As to conditions: 20 mM Hepes pH 7.9, 2 mM MgCl2, 0.1 mM EDTA, 10% glycerol, 2 mM spermidine, 0.5 mM DTT, 30-50 ng salmon-sperm DNA, 2 ug BSA, 20 uL, 30 min on ice, protein in an extract, label: 32P (dATP).

Construct, isoform or probe ends are uncertain for at least one entry. At least one result comes from cells or an extract, where the contact may be indirect.

Regarding “CAGTCTGTCCCGACGTGACTTCCTC (double strand) [COX-2 promoter HRE]”, the binding result is on record as “binds” in data set [1] (plus recombinant His-BTG3, binding not affected) and “binds” in data set [2].

In the case of “CAGTGCATACGTGGGCTCCAACAGGTCCTC (double strand) [VEGFA promoter HRE (VEGF II)]”, the binding result in data set [1] (plus recombinant full-length His-BTG3, binding not affected) was “binds”; in data set [2] it was “binds”.
